Measurements: paper PMC5541705
Results are given in words; binding and its absence hold for the method and conditions named. In cells and extracts the contact can be indirect. Some binding calls cover weakened binding; strength is not graded here.

Molecular target: T1, Transforming growth factor-β2 (TGFβ2) (human (endogenous in MDA-MB-231)) (UniProt P61812)
T1 sequence: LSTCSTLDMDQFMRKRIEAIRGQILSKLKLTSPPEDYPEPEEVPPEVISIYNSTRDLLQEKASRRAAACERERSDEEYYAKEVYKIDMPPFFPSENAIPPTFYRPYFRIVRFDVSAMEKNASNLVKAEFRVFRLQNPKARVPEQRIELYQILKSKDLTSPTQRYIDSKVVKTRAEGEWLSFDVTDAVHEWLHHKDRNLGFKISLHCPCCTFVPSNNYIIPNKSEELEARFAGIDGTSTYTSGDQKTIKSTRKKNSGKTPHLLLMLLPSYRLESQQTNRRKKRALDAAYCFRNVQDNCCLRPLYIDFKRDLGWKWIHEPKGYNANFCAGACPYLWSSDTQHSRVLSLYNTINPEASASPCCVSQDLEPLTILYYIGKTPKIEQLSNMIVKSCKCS
Experiment: co-IP; 1 mg MDA-MB-231 lysate (RIPA buffer with protease inhibitors) incubated with protein G-agarose and anti-SRGN or anti-TGFβ2 antibody for 4 h at 4 °C; beads washed 3 times with 150 mM NaCl, 25 mM Tris-HCl pH 7.5, 0.1% Nonidet P-40; western blot with anti-SRGN or anti-TGFβ2 antibody

B1: Serglycin (SRGN) (protein, UniProt P10124 28-158)
chain: YPTRRARYQWVRCNPDSNSANCLEEKGPMFELLPGESNKIPRLRTDLFPKTRIQDLNRIFPLSEDYSGSGFGSGSGSGSGSGSGFLTEMEQDYQLVDESDAFHDNLRSLDRNLPSDSQDLGQHGLEEDFML
- binding: binds
